Measurements reported in PMC9484695, “The evolutionary conserved proteins CEP90, FOPNL, and OFD1 recruit centriolar distal appendage proteins to initiate their assembly” (PLoS Biology, 2022).
Results are given in words; binding and its absence hold for the method and conditions named. Some binding calls cover weakened binding; strength is not graded here. Where a sequence is shown, tags or fusion partners need not be part of it. One block for each binder: values may come before it.

Assays:
[1] = molecular target: T1, MNR-GFP (UniProt Q2KHM9); assay: microtubule recruitment (displacement) assay; U2OS cotransfected with MNR-GFP (on microtubules, bait) and myc-FOPNL, OFD1 mCherry or CEP90, 24 h; localisation of the co-overexpressed protein read by microscopy
T1 sequence: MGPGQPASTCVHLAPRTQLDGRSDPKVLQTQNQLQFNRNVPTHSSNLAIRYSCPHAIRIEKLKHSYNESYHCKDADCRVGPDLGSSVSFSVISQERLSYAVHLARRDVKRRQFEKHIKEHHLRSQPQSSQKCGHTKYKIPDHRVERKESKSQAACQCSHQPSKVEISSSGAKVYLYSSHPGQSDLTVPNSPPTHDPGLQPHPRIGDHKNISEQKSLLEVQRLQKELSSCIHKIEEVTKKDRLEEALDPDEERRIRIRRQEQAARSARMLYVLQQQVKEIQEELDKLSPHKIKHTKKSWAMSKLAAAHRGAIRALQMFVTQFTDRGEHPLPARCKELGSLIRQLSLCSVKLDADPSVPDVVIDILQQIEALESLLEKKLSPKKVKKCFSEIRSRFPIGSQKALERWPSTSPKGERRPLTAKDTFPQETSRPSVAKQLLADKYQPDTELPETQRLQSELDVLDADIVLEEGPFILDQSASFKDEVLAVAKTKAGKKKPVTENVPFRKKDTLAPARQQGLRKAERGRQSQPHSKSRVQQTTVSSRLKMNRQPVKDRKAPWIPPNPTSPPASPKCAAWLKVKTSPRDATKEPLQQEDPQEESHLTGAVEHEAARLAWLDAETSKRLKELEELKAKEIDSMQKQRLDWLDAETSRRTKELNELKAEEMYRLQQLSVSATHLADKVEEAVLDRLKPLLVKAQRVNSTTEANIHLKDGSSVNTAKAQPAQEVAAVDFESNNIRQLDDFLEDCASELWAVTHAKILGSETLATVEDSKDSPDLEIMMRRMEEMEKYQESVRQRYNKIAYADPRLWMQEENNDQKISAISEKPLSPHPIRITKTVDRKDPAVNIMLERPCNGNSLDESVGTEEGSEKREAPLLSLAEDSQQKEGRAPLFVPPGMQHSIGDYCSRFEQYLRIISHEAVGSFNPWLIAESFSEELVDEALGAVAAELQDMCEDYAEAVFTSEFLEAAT

[2] = molecular target: T1, MNR-GFP; assay: microtubule recruitment (displacement) assay; U2OS cotransfected with MNR-GFP and CEP90, OFD1 mCherry or myc-FOPNL, 24 h; endogenous OFD1, CEP90, CEP83, CEP89, CEP164 stained; percent of cells with the endogenous protein on microtubules, 100 < N < 150 cells per condition, 3 experiments

binding [1]: binds
B1: myc-FOPNL (protein, UniProt Q96NB1 1-174)
chain: MATVAELKAVLKDTLEKKGVLGHLKARIRAEVFNALDDDREPRPSLSHENLLINELIREYLEFNKYKYTASVLIAESGQPVVPLDRQFLIHELNAFEESKDNTIPLLYGILAHFLRGTKDGIQNAFLKGPSLQPSDPSLGRQPSRRKPMDDHLRKEEQKSTNIEDLHVSQAVNR

binding [1]: binds
B2: CEP90 (overexpressed) (protein, UniProt Q8WXW3 1-757)
chain: MSRKISKESKKVNISSSLESEDISLETTVPTDDISSSEEREGKVRITRQLIERKELLHNIQLLKIELSQKTMMIDNLKVDYLTKIEELEEKLNDALHQKQLLTLRLDNQLAFQQKDASKYQELMKQEMETILLRQKQLEETNLQLREKAGDVRRNLRDFELTEEQYIKLKAFPEDQLSIPEYVSVRFYELVNPLRKEICELQVKKNILAEELSTNKNQLKQLTETYEEDRKNYSEVQIRCQRLALELADTKQLIQQGDYRQENYDKVKSERDALEQEVIELRRKHEILEASHMIQTKERSELSKEVVTLEQTVTLLQKDKEYLNRQNMELSVRCAHEEDRLERLQAQLEESKKAREEMYEKYVASRDHYKTEYENKLHDELEQIRLKTNQEIDQLRNASREMYERENRNLREARDNAVAEKERAVMAEKDALEKHDQLLDRYRELQLSTESKVTEFLHQSKLKSFESERVQLLQEETARNLTQCQLECEKYQKKLEVLTKEFYSLQASSEKRITELQAQNSEHQARLDIYEKLEKELDEIIMQTAEIENEDEAERVLFSYGYGANVPTTAKRRLKQSVHLARRVLQLEKQNSLILKDLEHRKDQVTQLSQELDRANSLLNQTQQPYRYLIESVRQRDSKIDSLTESIAQLEKDVSNLNKEKSALLQTKNQMALDLEQLLNHREELAAMKQILVKMHSKHSENSLLLTKTEPKHVTENQKSKTLNVPKEHEDNIFTPKPTLFTKKEAPEWSKKQKMKT

binding [1]: binds
B3: OFD1-mcherry (protein, UniProt O75665 1-1012)
chain: MMAQSNMFTVADVLSQDELRKKLYQTFKDRGILDTLKTQLRNQLIHELMHPVLSGELQPRSISVEGSSLLIGASNSLVADHLQRCGYEYSLSVFFPESGLAKEKVFTMQDLLQLIKINPTSSLYKSLVSGSDKENQKGFLMHFLKELAEYHQAKESCNMETQTSSTFNRDSLAEKLQLIDDQFADAYPQRIKFESLEIKLNEYKREIEEQLRAEMCQKLKFFKDTEIAKIKMEAKKKYEKELTMFQNDFEKACQAKSEALVLREKSTLERIHKHQEIETKEIYAQRQLLLKDMDLLRGREAELKQRVEAFELNQKLQEEKHKSITEALRRQEQNIKSFEETYDRKLKNELLKYQLELKDDYIIRTNRLIEDERKNKEKAVHLQEELIAINSKKEELNQSVNRVKELELELESVKAQSLAITKQNHMLNEKVKEMSDYSLLKEEKLELLAQNKLLKQQLEESRNENLRLLNRLAQPAPELAVFQKELRKAEKAIVVEHEEFESCRQALHKQLQDEIEHSAQLKAQILGYKASVKSLTTQVADLKLQLKQTQTALENEVYCNPKQSVIDRSVNGLINGNVVPCNGEISGDFLNNPFKQENVLARMVASRITNYPTAWVEGSSPDSDLEFVANTKARVKELQQEAERLEKAFRSYHRRVIKNSAKSPLAAKSPPSLHLLEAFKNITSSSPERHIFGEDRVVSEQPQVGTLEERNDVVEALTGSAASRLRGGTSSRRLSSTPLPKAKRSLESEMYLEGLGRSHIASPSPCPDRMPLPSPTESRHSLSIPPVSSPPEQKVGLYRRQTELQDKSEFSDVDKLAFKDNEEFESSFESAGNMPRQLEMGGLSPAGDMSHVDAAAAAVPLSYQHPSVDQKQIEEQKEEEKIREQQVKERRQREERRQSNLQEVLERERRELEKLYQERKMIEESLKIKIKKELEMENELEMSNQEIKDKSAHSENPLEKYMKIIQQEQDQESADKSSKKMVQEGSLVDTLQSSDKVESLTGFSHEELDDSW

binding [2]: binds
B4: OFD1 (endogenous) (natural protein, UniProt O75665 1-1012, looked up)
chain: B3 chain
notes: OFD1, endogenous human protein; source: endogenous: HEK293 Flp-In cells (BioID); Hela Kyoto lysate (co-IP); U2OS cells (microtubule recruitment assay)
